{"source": "PubChem BioAssay AID504467", "about": "(National Center for Advancing Translational Sciences (NCATS), 2011)", "note": "The whole screen tested about 330,000 compounds, of which about 7,700 (2.3%) were called active. The shares of active, inactive and inconclusive entries below differ from those in the screen. The call rests on the fitted dose curve; in most records, active means well fitted inhibition curve with a large enough effect; inconclusive means small, poorly fitted or top-dose-only effect, or effect the other way; inactive means flat fitted curve, though single readings scatter. Where the call is inconclusive, the potency comes from a doubtful curve fit. On the % scale 0 is the no-effect control and ±100 the full control effect; potency means the concentration at half of the fitted maximal effect.", "data": [{"assay": "qHTS screen for small molecules that inhibit ELG1-dependent DNA repair in human embryonic kidney (HEK293T) cells expressing luciferase-tagged ELG1; further: nearly all actives have a fitted effect of over 55% in size", "settings": "HEK293T ELG1-luciferase reporter, luminescence, 16 h, DNA damage induced by 5-fluorouridine; activity change, negative = inhibition: at 46.1 µM (top of the series)", "summary_of_the_method": "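Step one: seed 2,000 cells per well. Step two: pin-transfer compound or DMSO alongside 5-fluorouridine. Step three: incubate 16 hr, 37 °C, 5% CO2. Step four: add ONE-Glo, wait 30 min, read luminescence.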", "values": [{"smiles": "COc1ccc(OC)c(CN2CCN(c3ccc(S(=O)(=O)N4CCCC4)cn3)CC2)c1", "Potency": "inconclusive: 23.1 µM [inhibitor, single point]"}, {"smiles": "O=C1CSC(c2cn(-c3ccccc3)nc2-c2cc3ccccc3oc2=O)N1Cc1ccccc1", "note": "(stereo unspecified)", "Potency": "active: 20.6 µM"}, {"smiles": "COc1ccc(C(=O)Nc2ccc(NC(=O)c3ccco3)cc2)cc1", "Potency": "inconclusive: 20.6 µM [activator, single point]"}, {"smiles": "CC(C)NC(=S)NC(c1ccccc1)(c1ccccc1)c1ccccc1", "Potency": "inconclusive: 23.1 µM [inhibitor, single point]"}, {"smiles": "CCOC(=O)C1CCN(C(=O)COc2ccc(Br)cc2Br)CC1", "activity change, negative = inhibition": "inactive: -17.2%"}, {"smiles": "Cc1cccc(OCc2nnc(-c3ccc(F)cc3)o2)c1", "Potency": "inconclusive: 35.5 µM [activator, single point]"}, {"smiles": "Cc1cc(NC(=O)CSc2nc3cc(Cl)ccc3o2)no1", "activity change, negative = inhibition": "inactive: 4.82%"}, {"smiles": "Cc1ccc(C)c(NC(=O)CN2C(=O)NC(CCc3ccccc3)C2=O)c1", "note": "(stereo unspecified)", "Potency": "inconclusive: 23.1 µM [activator, single point]"}, {"smiles": "CCCn1c(C(C)Nc2nc(-c3ccc(OC)cc3)cs2)nc2ccccc21", "note": "(stereo unspecified)", "activity change, negative = inhibition": "inactive: 10.6%"}, {"smiles": "CCOC(=O)/C(=C\\C=C1/Sc2ccccc2N1CC)C(C)=O", "Potency": "inconclusive: 29.1 µM [inhibitor, single point]"}, {"smiles": "Fc1ccccc1-c1nc(-c2ccncc2)no1", "Potency": "inconclusive: 7.3 µM [activator, partial curve]"}, {"smiles": "CCn1c(SCC(=O)Nc2cc(C(C)(C)C)nn2-c2ccccc2)nnc1-c1cccs1", "Potency": "inconclusive: 20.6 µM [inhibitor, partial curve]"}, {"smiles": "O=S(=O)(c1ccccc1F)N1CCN(CCOc2ccccc2)CC1", "activity change, negative = inhibition": "inactive: 10.7%"}, {"smiles": "CCOC(=O)C1=C(N)OC2=C(C(=O)CCC2)C1c1cccs1", "note": "(stereo unspecified)", "activity change, negative = inhibition": "inactive: 23.4%"}, {"smiles": "CCOc1ccc(NC(=O)[C@@H]2CCC(=O)N2C2OC(=O)c3ccccc32)cc1", "note": "(stereo partly specified)", "activity change, negative = inhibition": "inactive: -3.27%"}, {"smiles": "CN1CCc2c(sc3c2C(=O)NC(c2ccco2)N3)C1", "note": "(stereo unspecified)", "activity change, negative = inhibition": "inactive: 17.7%"}, {"smiles": "O=C(CN1C(=O)COc2ccccc21)N1CCCc2ccccc21", "activity change, negative = inhibition": "inactive: 0.366%"}, {"smiles": "O=C(Nc1ccccc1C(=O)NCC1CCCO1)c1ccc(Cl)cc1Cl", "note": "(stereo unspecified)", "activity change, negative = inhibition": "inactive: 0.0159%"}, {"smiles": "Cc1ccccc1N1CCN(C2CCCN(C(=O)CCn3cnnn3)C2)CC1", "note": "(stereo unspecified)", "activity change, negative = inhibition": "inactive: 1.42%"}, {"smiles": "CCOc1ccc(N(C)C(=O)CCc2nnc3ccc(NCc4ccco4)nn23)cc1", "Potency": "inconclusive: 14.6 µM [activator, partial curve, poor fit]"}, {"smiles": "CCCCN(C(=O)CCC(=O)Nc1cc(C)on1)C(C(=O)NC1CCCC1)c1ccc(F)cc1", "note": "(stereo unspecified)", "activity change, negative = inhibition": "inactive: -4.48%"}, {"smiles": "c1ccc2[nH]c(CSc3nccs3)nc2c1", "Potency": "inconclusive: 23.1 µM [activator, single point]"}, {"smiles": "CC1CCCC(C)N1C(=O)CSc1nc2ccccc2s1", "note": "(stereo unspecified)", "Potency": "inconclusive: 25.9 µM [activator, single point]"}, {"smiles": "COc1ccc(C(=O)NCCSC2CCCCC2)cc1", "Potency": "inconclusive: 10.3 µM [activator, partial curve]"}, {"smiles": "COc1ccc(-c2csc(NC(=O)c3ccc(S(=O)(=O)N4CCc5ccccc5C4)cc3)n2)cc1", "Potency": "inconclusive: 1.84 µM [inhibitor, partial curve, poor fit]"}, {"smiles": "CCN(CC)c1ccc(/C=C(\\C#N)c2nc(-c3cccs3)c(NC(C)=O)s2)cc1", "Potency": "inconclusive: 7.31 µM [inhibitor, partial curve]"}, {"smiles": "COc1ccc(C(C)(C)C)cc1NC(=O)CCCN1C(=O)CN(C)C1=O", "activity change, negative = inhibition": "inactive: 1.19%"}, {"smiles": "O=c1c2cccc3c(N4CCOCC4)ccc(c32)c2nc3ccccc3n12", "Potency": "inconclusive: 29.1 µM [inhibitor, single point]"}, {"smiles": "O=C(Nc1cccc(Cl)c1)c1ccc(-n2cncn2)c([N+](=O)[O-])c1", "Potency": "inconclusive: 29.1 µM [inhibitor, single point]"}, {"smiles": "CC1CCN(CCNC(=O)c2ccc3c(=O)n(Cc4ccc(Cl)cc4)c(=S)[nH]c3c2)CC1", "activity change, negative = inhibition": "inactive: 5.63%"}, {"smiles": "CCn1cc(C(=O)NCCc2ccc(OC)cc2)c(=O)c2ccc(C)nc21", "activity change, negative = inhibition": "inactive: -5.78%"}, {"smiles": "CCOc1ccc(NC(=O)CCSc2ccc3ccccc3n2)cc1", "Potency": "inconclusive: 18.4 µM [activator, single point]"}, {"smiles": "CC(=O)Nc1ccc(Cc2ccc3[nH]c(=O)cc(C)c3c2)cc1", "Potency": "inconclusive: 14.6 µM [activator, partial curve]"}, {"smiles": "Cc1ccc(NC(=S)NNC(=O)c2ccccc2O)c(C)c1", "Potency": "inconclusive: 29.1 µM [inhibitor, single point]"}, {"smiles": "O=C(COC(=O)CC12CC3CC(CC(C3)C1)C2)Nc1ncc(Cl)cc1Cl", "Potency": "inconclusive: 32.6 µM [inhibitor, single point]"}, {"smiles": "C/C(=N\\NC(=O)CSc1ncccn1)c1ccc2c(c1)OCCO2", "activity change, negative = inhibition": "inactive: 20.2%"}, {"smiles": "COC(=O)Cn1ncc2c3ccccc3n(Cc3ccccc3)c2c1=O", "activity change, negative = inhibition": "inactive: 3.85%"}, {"smiles": "CCOC(=O)N1CCC(N(CCN(C)C)C(=S)Nc2ccc(Oc3ccccc3)cc2)CC1", "activity change, negative = inhibition": "inactive: 2.28%"}, {"smiles": "CN1CCN(c2oc(-c3ccccc3)nc2S(=O)(=O)c2ccc(Br)cc2)CC1", "Potency": "inconclusive: 29.1 µM [inhibitor, single point]"}, {"smiles": "CC1(C)Cc2c(oc3ncn4ncnc4c23)CO1", "activity change, negative = inhibition": "inactive: -3.31%"}, {"smiles": "Cc1ccc2c(c1)C(c1ccncc1)=NNC(c1ccccc1)=N2", "Potency": "inconclusive: 16.4 µM [activator, partial curve]"}, {"smiles": "CCOC(=O)C1CCN(CCC(=O)Nc2ccc(C)cc2)CC1", "activity change, negative = inhibition": "inactive: 3.52%"}, {"smiles": "COc1ccc(/C=C/C(=O)c2cc(Cl)cc(Cl)c2O)c(OC)c1", "activity change, negative = inhibition": "inactive: -5.98%"}, {"smiles": "O=C(Nc1nc(-c2ccccc2Cl)cs1)c1cccnc1", "Potency": "inconclusive: 11.6 µM [inhibitor, partial curve, poor fit]"}, {"smiles": "COc1ccc2c(ccc[n+]2CC(=O)c2ccccc2)c1", "activity change, negative = inhibition": "inactive: -11.5%"}, {"smiles": "CN1CCN(c2ccccc2NC(=O)c2ccc([N+](=O)[O-])o2)CC1", "Potency": "active: 9.2 µM"}, {"smiles": "O=C(Nc1ccc(N2CCCCC2)c(S(=O)(=O)Nc2ccccc2Cl)c1)c1cccnc1", "Potency": "active: 18.3 µM"}, {"smiles": "CN(c1ccccc1)c1nc(N)c([N+](=O)[O-])c(N2CCCCC2)n1", "activity change, negative = inhibition": "inactive: 5.67%"}, {"smiles": "Cc1cc2[nH]c(=O)c(=O)[nH]c2cc1S(=O)(=O)N1CCN(c2ccccc2F)CC1", "Potency": "inconclusive: 0.461 µM [activator, partial curve, poor fit]"}, {"smiles": "COc1ccccc1CN1C[C@@H]2C[C@@H](c3ccc(C)c(C)c3)N3CCC[C@@]23C1=O", "Potency": "inconclusive: 0.651 µM [inhibitor, single point]"}, {"smiles": "Cc1ccc(F)cc1NC(=O)Cc1nn(C)c(=O)c2ccccc12", "Potency": "inconclusive: 1.3 µM [inhibitor, partial curve]"}, {"smiles": "CCc1cccc(C)c1NC(=O)CNCc1ccccc1", "activity change, negative = inhibition": "inactive: 14.8%"}, {"smiles": "O=C(CSC(=S)N1CCSCC1)c1ccc(Cl)cc1", "Potency": "inconclusive: 4.11 µM [activator, full curve]"}, {"smiles": "Cc1ccc(NC(=O)CCC(=O)N/N=C/c2ccc([N+](=O)[O-])o2)cc1C", "Potency": "inconclusive: 14.6 µM [inhibitor, partial curve]"}, {"smiles": "CCn1c(SCc2ccccc2F)nnc1-c1ccncc1", "activity change, negative = inhibition": "inactive: -21.7%"}, {"smiles": "O/N=C(/c1ccc(F)cc1)C1CC1c1c(F)cccc1Cl", "note": "(stereo unspecified)", "activity change, negative = inhibition": "inactive: -0.617%"}, {"smiles": "CC(C)(C)c1nc(N)nc(=O)[nH]1", "Potency": "inconclusive: 11.6 µM [inhibitor, partial curve]"}, {"smiles": "Cc1cc2nc(CSc3ccccc3)cc(=O)n2[nH]1", "Potency": "inconclusive: 29.1 µM [inhibitor, single point]"}, {"smiles": "COC(=O)CN(C(=S)Nc1ccc(F)cc1)C1CC(=O)N(c2ccccc2)C1=O", "note": "(stereo unspecified)", "activity change, negative = inhibition": "inactive: 16.5%"}, {"smiles": "CCOC(=O)N1CCN(c2cc3nccnc3cc2F)CC1", "Potency": "inconclusive: 23.1 µM [inhibitor, single point]"}, {"smiles": "Cc1cccc2[nH]c3c(N4CC=C(c5ccc(F)cc5)CC4)ncnc3c12", "Potency": "active: 11.6 µM"}, {"smiles": "O=C(O)C1CCC(=O)N1C(=O)OCc1ccccc1", "note": "(stereo unspecified)", "Potency": "inconclusive: 25.9 µM [activator, partial curve, poor fit]"}, {"smiles": "Cc1cc(N2CCOCC2)ccc1/C=C1\\SC(=O)N(C(C)C)C1=O", "Potency": "inconclusive: 11.6 µM [activator, partial curve, poor fit]"}, {"smiles": "Cc1ccc(C(=O)OCC(=O)NCc2ccc3c(c2)OCO3)cc1S(=O)(=O)N1CCOCC1", "Potency": "inconclusive: 29.1 µM [activator, single point]"}, {"smiles": "COc1cc(C(F)(F)F)c(C(=O)N(C)Cc2cccc(Cl)c2)cn1", "Potency": "inconclusive: 7.3 µM [inhibitor, partial curve, poor fit]"}, {"smiles": "c1ccc2c(NCC3CCCO3)nc(N3CCOCC3)nc2c1", "note": "(stereo unspecified)", "activity change, negative = inhibition": "inactive: -15.7%"}, {"smiles": "O=C(Nc1ccc(Cl)c(Cl)c1)Nc1ccccc1O", "Potency": "inconclusive: 8.2 µM [activator, partial curve]"}, {"smiles": "O=C(CCNC(=O)c1ccco1)NCCc1ccc(Cl)cc1", "Potency": "inconclusive: 8.2 µM [activator, partial curve, poor fit]"}, {"smiles": "COC(=O)c1cnn(-c2ccccc2)c1N", "activity change, negative = inhibition": "inactive: 0%"}, {"smiles": "CCOC(=O)N1CCN(C(=O)CSCc2nc(-c3ccccc3F)oc2C)CC1", "Potency": "inconclusive: 22.4 µM [inhibitor, single point]"}, {"smiles": "N#Cc1ccc(NC(=O)c2cccs2)nc1", "Potency": "inconclusive: 16.4 µM [activator, partial curve]"}, {"smiles": "Cc1ccc(NC(=O)/C(C#N)=C/c2ccccc2C(F)(F)F)cc1", "activity change, negative = inhibition": "inactive: 0.936%"}, {"smiles": "Cc1ccccc1NC(=O)NC1(C(=O)N2CCN(C)CC2)CCCCC1", "activity change, negative = inhibition": "inactive: 17.7%"}, {"smiles": "Nc1ncc(-c2ccc([N+](=O)[O-])cc2)cn1", "Potency": "inconclusive: 18.4 µM [activator, partial curve, poor fit]"}, {"smiles": "O=C(CSc1nnnn1-c1ccccc1)NC(=O)Cc1ccccc1", "activity change, negative = inhibition": "inactive: -1.41%"}, {"smiles": "Cc1ccc(NC(=O)C2CCN(S(=O)(=O)c3ccc4c(c3)NC(=O)C(C)S4)CC2)cc1Cl", "note": "(stereo unspecified)", "Potency": "active: 13 µM"}]}]}
